Assay results as given in article PMC3789791.
No constants are given. Whether binding was seen depends on the method and setting. In cells and extracts the contact can be indirect. Some entries that bind do so weakly or less than the wild type. Where a sequence is shown, tags or fusion partners need not be part of it.

By UniProt entry, the sequences of proteins in these tests, tags left out. Where a name states a change or a piece, a line headed by the entry shows the natural chain unless it says otherwise. Chains listed by the source or under a name are the forms on record and can include a tag or linker. Residues count along the entry.
UniProt P38111: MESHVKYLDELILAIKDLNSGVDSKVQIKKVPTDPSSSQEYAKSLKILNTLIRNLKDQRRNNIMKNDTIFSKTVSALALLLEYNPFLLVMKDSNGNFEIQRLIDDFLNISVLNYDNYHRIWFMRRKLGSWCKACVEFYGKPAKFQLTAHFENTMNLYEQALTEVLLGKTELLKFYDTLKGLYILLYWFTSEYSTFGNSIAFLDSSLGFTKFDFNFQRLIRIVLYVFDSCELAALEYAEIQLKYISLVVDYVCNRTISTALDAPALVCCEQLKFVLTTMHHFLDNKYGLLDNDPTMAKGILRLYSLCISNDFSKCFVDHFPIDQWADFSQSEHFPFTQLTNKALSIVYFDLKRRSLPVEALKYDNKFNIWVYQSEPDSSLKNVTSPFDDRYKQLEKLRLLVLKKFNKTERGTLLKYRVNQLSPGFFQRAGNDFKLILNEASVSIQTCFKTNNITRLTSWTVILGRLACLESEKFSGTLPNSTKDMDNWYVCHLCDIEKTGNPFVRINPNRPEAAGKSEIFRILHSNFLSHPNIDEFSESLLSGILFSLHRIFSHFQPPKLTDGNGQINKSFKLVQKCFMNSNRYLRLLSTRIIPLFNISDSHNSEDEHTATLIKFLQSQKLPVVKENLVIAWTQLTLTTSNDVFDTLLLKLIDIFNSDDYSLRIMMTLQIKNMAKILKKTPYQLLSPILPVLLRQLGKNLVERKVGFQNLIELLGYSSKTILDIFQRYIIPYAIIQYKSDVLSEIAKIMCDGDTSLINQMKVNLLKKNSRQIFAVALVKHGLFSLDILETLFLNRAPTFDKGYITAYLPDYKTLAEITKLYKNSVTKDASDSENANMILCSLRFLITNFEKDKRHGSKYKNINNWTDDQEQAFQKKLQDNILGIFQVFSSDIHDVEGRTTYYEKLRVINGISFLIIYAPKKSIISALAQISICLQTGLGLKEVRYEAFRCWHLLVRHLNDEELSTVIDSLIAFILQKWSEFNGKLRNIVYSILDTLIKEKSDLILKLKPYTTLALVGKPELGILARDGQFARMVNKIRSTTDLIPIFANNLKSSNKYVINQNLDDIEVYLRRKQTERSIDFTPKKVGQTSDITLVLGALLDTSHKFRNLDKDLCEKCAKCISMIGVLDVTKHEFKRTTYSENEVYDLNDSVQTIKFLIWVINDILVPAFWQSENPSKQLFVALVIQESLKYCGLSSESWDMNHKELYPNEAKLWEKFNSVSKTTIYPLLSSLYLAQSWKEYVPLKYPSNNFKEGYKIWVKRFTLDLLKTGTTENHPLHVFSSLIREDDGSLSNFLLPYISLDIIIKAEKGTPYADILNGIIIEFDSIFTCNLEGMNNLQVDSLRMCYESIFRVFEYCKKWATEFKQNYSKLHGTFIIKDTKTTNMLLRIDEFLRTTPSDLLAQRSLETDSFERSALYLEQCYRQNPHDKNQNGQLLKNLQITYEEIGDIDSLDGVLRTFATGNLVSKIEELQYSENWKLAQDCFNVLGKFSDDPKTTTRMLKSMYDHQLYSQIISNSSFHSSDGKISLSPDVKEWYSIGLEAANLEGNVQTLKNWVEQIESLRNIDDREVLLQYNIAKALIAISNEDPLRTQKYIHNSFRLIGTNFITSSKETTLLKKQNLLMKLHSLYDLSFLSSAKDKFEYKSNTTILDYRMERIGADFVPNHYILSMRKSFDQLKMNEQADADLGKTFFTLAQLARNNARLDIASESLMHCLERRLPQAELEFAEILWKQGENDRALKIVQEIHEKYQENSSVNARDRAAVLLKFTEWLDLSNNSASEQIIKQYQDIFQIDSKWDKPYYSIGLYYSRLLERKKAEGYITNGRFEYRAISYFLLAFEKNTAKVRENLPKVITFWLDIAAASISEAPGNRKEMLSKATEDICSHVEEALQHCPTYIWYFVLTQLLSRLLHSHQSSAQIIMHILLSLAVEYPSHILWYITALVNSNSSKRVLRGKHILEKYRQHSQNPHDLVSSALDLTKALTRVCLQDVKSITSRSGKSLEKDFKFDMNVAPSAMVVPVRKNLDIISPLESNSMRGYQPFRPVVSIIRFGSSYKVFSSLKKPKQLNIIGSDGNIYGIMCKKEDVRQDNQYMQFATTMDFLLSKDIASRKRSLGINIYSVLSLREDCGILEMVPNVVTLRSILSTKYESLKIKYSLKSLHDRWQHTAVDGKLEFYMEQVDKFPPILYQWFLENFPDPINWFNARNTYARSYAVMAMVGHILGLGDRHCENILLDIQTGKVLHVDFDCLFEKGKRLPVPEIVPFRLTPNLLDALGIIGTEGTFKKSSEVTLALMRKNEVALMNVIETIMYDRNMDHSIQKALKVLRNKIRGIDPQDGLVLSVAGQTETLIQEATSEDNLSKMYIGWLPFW
Flag^5-Mec1-Δ1: residues 1-2367 of P38111
Flag^5-Mec1-2369G (P38111, form named): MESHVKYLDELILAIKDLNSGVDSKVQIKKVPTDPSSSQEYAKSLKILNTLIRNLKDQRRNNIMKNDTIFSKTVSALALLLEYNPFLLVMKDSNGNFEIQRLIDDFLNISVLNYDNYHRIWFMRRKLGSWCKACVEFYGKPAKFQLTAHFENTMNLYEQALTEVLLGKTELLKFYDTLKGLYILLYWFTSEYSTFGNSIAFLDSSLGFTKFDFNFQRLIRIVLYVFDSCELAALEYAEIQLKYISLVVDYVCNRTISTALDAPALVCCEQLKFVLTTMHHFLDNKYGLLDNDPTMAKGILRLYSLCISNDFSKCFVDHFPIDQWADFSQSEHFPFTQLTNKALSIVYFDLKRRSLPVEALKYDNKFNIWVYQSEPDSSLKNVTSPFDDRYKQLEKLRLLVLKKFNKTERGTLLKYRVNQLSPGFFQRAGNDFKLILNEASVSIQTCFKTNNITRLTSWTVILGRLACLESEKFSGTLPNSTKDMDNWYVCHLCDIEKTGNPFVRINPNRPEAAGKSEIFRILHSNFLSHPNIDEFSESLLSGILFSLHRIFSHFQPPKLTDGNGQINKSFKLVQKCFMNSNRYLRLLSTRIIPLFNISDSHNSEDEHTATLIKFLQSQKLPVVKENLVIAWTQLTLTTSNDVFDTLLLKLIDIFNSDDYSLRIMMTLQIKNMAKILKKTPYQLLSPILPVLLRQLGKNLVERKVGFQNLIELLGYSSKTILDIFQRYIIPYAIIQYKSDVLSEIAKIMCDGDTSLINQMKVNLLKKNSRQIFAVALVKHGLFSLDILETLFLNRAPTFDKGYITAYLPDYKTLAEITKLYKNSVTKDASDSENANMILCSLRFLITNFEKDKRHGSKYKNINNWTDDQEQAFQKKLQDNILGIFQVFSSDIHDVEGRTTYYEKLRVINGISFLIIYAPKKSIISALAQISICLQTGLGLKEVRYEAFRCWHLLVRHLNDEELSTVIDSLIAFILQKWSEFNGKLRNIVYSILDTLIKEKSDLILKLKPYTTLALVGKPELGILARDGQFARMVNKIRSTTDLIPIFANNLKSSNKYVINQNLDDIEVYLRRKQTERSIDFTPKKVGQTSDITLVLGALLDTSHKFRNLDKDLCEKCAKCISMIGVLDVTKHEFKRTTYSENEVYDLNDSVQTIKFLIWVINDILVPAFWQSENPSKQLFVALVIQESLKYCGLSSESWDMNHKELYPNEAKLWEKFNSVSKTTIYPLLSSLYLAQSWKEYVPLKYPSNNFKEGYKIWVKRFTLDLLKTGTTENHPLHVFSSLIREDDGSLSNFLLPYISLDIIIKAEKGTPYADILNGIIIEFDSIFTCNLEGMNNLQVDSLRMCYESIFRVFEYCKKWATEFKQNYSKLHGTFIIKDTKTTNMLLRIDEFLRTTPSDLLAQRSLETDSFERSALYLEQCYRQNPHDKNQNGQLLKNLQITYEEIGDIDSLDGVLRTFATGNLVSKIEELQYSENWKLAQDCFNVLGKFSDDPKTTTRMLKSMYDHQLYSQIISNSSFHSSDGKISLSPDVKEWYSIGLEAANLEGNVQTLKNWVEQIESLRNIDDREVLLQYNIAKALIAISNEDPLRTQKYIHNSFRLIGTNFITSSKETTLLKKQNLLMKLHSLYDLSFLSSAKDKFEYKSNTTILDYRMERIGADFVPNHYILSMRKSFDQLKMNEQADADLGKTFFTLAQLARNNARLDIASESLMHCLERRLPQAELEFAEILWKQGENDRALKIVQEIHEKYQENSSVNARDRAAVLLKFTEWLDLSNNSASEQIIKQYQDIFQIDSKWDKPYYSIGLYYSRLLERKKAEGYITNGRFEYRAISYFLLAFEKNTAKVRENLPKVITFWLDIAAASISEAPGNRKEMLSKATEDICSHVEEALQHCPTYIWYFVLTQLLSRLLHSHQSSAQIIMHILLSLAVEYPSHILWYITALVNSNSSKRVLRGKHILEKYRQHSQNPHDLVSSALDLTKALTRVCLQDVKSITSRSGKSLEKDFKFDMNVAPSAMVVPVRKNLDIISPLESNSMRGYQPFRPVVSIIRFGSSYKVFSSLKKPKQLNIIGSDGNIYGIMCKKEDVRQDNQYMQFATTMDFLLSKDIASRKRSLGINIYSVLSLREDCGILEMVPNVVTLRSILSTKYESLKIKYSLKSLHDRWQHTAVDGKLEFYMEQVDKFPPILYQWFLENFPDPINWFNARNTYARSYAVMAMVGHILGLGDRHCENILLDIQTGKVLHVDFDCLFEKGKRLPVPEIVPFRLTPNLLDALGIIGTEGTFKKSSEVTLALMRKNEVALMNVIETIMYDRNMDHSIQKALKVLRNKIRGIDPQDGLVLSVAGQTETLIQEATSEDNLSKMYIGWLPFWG

Experiments:
Experiment in all cases: co-IP; anti-Flag M2 magnetic beads on 3 mg yeast extract of strains with a Flag^5-tagged Mec1 derivative and YCplac111-myc^9-Lcd1; IP buffer 50 mM HEPES pH 7.5, 100 mM KCl, 0.1 mM EDTA, 0.2% Tween20, 1.0 mM dithiothreitol, 4°, 2.5 hr; blots with anti-Flag and anti-myc
[1] = target: Flag^5-Mec1 (wild-type) (S. cerevisiae) (UniProt P38111)
[2] = target: Flag^5-Mec1-2369G (S. cerevisiae) (UniProt P38111)
[3] = target: Flag^5-Mec1-W2368A (S. cerevisiae) (UniProt P38111)
[4] = target: Flag^5-Mec1-Δ1 (S. cerevisiae) (UniProt P38111)

binding [1]: binds
binding [2]: binds
binding [3]: binds
binding [4]: binds
B1: myc^9-tagged Lcd1/Ddc2 (protein, UniProt Q04377 1-747)
chain: MRRETVGEFSSDDDDDILLELGTRPPRFTQIPPSSAALQTQIPTTLEVTTTTLNNKQSKNDNQLVNQLNKAQGEASMLRDKINFLNIEREKEKNIQAVKVNELQVKHLQELAKLKQELQKLEDEKKFLQMEARGKSKREVITNVKPPSTTLSTNTNTITPDSSSVAIEAKPQSPQSKKRKISDNLLKKNMVPLNPNRIIPDETSLFLESILLHQIIGADLSTIEILNRLKLDYITEFKFKNFVIAKGAPIGKSIVSLLLRCKKTLTLDRFIDTLLEDIAVLIKEISVHPNESKLAVPFLVALMYQIVQFRPSATHNLALKDCFLFICDLIRIYHHVLKVPIHESNMNLHVEPQIFQYELIDYLIISYSFDLLEGILRVLQSHPKQTYMEFFDENILKSFEFVYKLALTISYKPMVNVIFSAVEVVNIITSIILNMDNSSDLKSLISGSWWRDCITRLYALLEKEIKSGDVYNENVDTTTLHMSKYHDFFGLIRNIGDNELGGLISKLIYTDRLQSVPRVISKEDIGMDSDKFTAPIIGYKMEKWLLKLKDEVLNIFENLLMIYGDDATIVNGEMLIHSSKFLSREQALMIERYVGQDSPNLDLRCHLIEHTLTIIYRLWKDHFKQLREEQIKQVESQLIMSLWRFLVCQTETVTANEREMRDHRHLVDSLHDLTIKDQASYYEDAFEDLPEYIEEELKMQLNKRTGRIMQVKYDEKFQEMARTILESKSFDLTTLEEADSLYISMGL
